Assay results from PMC3266240.
No constants are given. Whether binding was seen depends on the method and setting. In cells and extracts the contact can be indirect. Some results given as binding are weak or reduced against the parent protein; the word gives no strength. One block for each molecule: values may come before it.

Protein sequences, listed by entry. Tags and fused reporters are not part of them. Lines headed by an entry give the natural chain unless they say otherwise; changes in a name come on top. Residues count along the entry.
UniProt Q9HB71, residues 1-177: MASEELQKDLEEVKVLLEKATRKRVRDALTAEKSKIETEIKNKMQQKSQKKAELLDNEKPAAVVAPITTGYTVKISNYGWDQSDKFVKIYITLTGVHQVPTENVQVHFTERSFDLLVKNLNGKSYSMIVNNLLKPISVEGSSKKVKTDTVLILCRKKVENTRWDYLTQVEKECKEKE
UniProt P63208: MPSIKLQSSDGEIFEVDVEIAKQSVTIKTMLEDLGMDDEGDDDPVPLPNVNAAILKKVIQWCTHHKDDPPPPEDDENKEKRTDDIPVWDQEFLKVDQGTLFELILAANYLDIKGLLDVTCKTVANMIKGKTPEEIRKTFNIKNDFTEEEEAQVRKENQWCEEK

Target: CacyBP/SIPΔS100 (C-terminal deletion aa178-229 mutant of CacyBP/SIP, FLAG-tagged) (UniProt Q9HB71)
Assay: co-IP; lysates of stable MKN45 transfectants (20 mM Tris-HCl pH 7.5, 8 mM MgCl2, 150 mM NaCl, 0.2 mM EGTA, 1% Nonidet P-40); precipitated with serum containing antibodies against CacyBP/SIP and protein A/G-Sepharose at 4°; washes up to 500 mM NaCl; western blot of the partner

binding: binds
Molecule: Skp1 (from UniProt P63208 1-163)

binding: binds
B1: Siah1 (protein, UniProt Q8IUQ4 1-282)
chain: MSRQTATALPTGTSKCPPSQRVPALTGTTASNNDLASLFECPVCFDYVLPPILQCQSGHLVCSNCRPKLTCCPTCRGPLGSIRNLAMEKVANSVLFPCKYASSGCEITLPHTEKADHEELCEFRPYSCPCPGASCKWQGSLDAVMPHLMHQHKSITTLQGEDIVFLATDINLPGAVDWVMMQSCFGFHFMLVLEKQEKYDGHQQFFAIVQLIGTRKQAENFAYRLELNGHRRRLTWEATPRSIHEGIATAIMNSDCLVFDTSIAQLFAENGNLGINVTISMC
